A short description of the data set: Decomposition and acid generation amount by photoirradiation (titration). Type of data set: physicochemical. The conditions noted are these: 0.02-mmol/g acetonitrile solution, 365 nm, 0.4 mW/cm^2 for 1200 seconds, exposure amount 480 mJ/cm^2.

`O=S1(=O)[N-]S(=O)(=O)C(F)(F)C(F)(F)C1(F)F.c1ccc([S+](c2ccccc2)c2ccccc2)cc1` [C. Ex. 1, triphenylsulfonium 1,1,2,2,3,3-hexafluorotrimethylene imide, reference compound] came in with an Acid generation rate of 4%.
The result for `COc1ccc2ccc(OC)c([S+](c3ccccc3)c3ccccc3)c2c1.O=S1(=O)[N-]S(=O)(=O)C(F)(F)C(F)(F)C1(F)F` [C. Ex. 2, 1-(2,7-dimethoxynaphthyl)diphenylsulfonium 1,1,2,2,3,3-hexafluorotrimethylene sulfone imide, reference compound] reads 0%.
On to `CCCCOc1ccc2ccc(OCCCC)c([S+](CCCC)CCCC)c2c1.F[P-](F)(F)(F)(F)F` [C. Ex. 3, 1-(2,7-di-n-butoxynaphthyl)di-n-butylsulfonium hexafluorophosphate, reference compound], for which the Acid generation rate amounted to 15%.
The result for `O=S(=O)([N-]S(=O)(=O)C(F)(F)C(F)(F)C(F)(F)C(F)(F)F)C(F)(F)C(F)(F)C(F)(F)C(F)(F)F.c1ccc([S+](c2ccccc2)c2ccccc2)cc1` [C. Ex. 4, triphenylsulfonium di(1,1,2,2,3,3,4,4,4-nonafluorobutanesulfone)imide, reference compound] reads 2%; that for `CCCCOc1ccc2ccc(OCCCC)c([S+](c3ccccc3)c3ccccc3)c2c1.O=S(=O)([N-]S(=O)(=O)C(F)(F)C(F)(F)C(F)(F)C(F)(F)F)C(F)(F)C(F)(F)C(F)(F)C(F)(F)F` [C. Ex. 5, 1-(2,7-di-n-butoxynaphthyl)diphenylsulfonium di(1,1,2,2,3,3,4,4,4-nonafluorobutanesulfone)imide, reference compound], 1%; that for `CCCCOc1ccc2ccc(OCCCC)c([S+](CCCC)CCCC)c2c1.O=S(=O)([N-]S(=O)(=O)C(F)(F)C(F)(F)C(F)(F)C(F)(F)F)C(F)(F)C(F)(F)C(F)(F)C(F)(F)F` [Ex. 1, 1-(2,7-di-n-butoxynaphthyl)di-n-butylsulfonium di(1,1,2,2,3,3,4,4,4-nonafluorobutanesulfone)imide], 12%.
The molecule `CCCCOc1ccc2ccc(OCCCC)c([S+](C)C)c2c1.O=S(=O)([N-]S(=O)(=O)C(F)(F)C(F)(F)C(F)(F)C(F)(F)F)C(F)(F)C(F)(F)C(F)(F)C(F)(F)F` [Ex. 2, 1-(2,7-di-n-butoxynaphthyl)dimethylsulfonium di(1,1,2,2,3,3,4,4,4-nonafluorobutanesulfone)imide] showed an Acid generation rate of 6%.
Molecule `CCCCOc1ccc2c(OCCCC)ccc([S+](CCCC)CCCC)c2c1.O=S(=O)([N-]S(=O)(=O)C(F)(F)C(F)(F)C(F)(F)C(F)(F)F)C(F)(F)C(F)(F)C(F)(F)C(F)(F)F` [Ex. 3, 1-(4,7-di-n-butoxynaphthyl)di-n-butylsulfonium di(1,1,2,2,3,3,4,4,4-nonafluorobutanesulfone)imide] displayed an Acid generation rate of 19%.
`CCCCOc1ccc2ccc(OCCCC)c([S+](CCCC)CCCC)c2c1.O=S1(=O)[N-]S(=O)(=O)C(F)(F)C(F)(F)C1(F)F` [Ex. 4, 1-(2,7-di-n-butoxynaphthyl)di-n-butylsulfonium 1,1,2,2,3,3-hexafluorotrimethylene sulfone imide] showed an Acid generation rate of 12%.
The figure for `CCCCOc1cc(OCCCC)c2ccccc2c1[S+](CCCC)CCCC.O=S(=O)([N-]S(=O)(=O)C(F)(F)C(F)(F)C(F)(F)C(F)(F)F)C(F)(F)C(F)(F)C(F)(F)C(F)(F)F` [Ex. 5, 1-(2,4-di-n-butoxynaphthyl)di-n-butylsulfonium di(1,1,2,2,3,3,4,4,4-nonafluorobutanesulfone)imide] is 3%; for `CCCCOc1ccc2ccc(OCCCC)c([S+](CCCC)CCCC)c2c1.O=S(=O)([O-])C(F)(F)C(F)(F)C(F)(F)C(F)(F)F` [Ex. 6, 1-(2,7-di-n-butoxynaphthyl)di-n-butylsulfonium 1,1,2,2,3,3,4,4,4-nonafluorobutanesulfonate] it is 12%; for `CCCCOc1ccc([S+](CCCC)CCCC)c2c(OCCCC)cccc12.O=S(=O)([N-]S(=O)(=O)C(F)(F)F)C(F)(F)F` [Ex. 7, 1-(4,8-di-n-butoxynaphthyl)di-n-butylsulfonium di(1,1,1-trifluoromethanesulfone)imide] it is 16%.
`CCCCOc1ccc([S+](CCCC)CCCC)c2c(OCCCC)cccc12.O=S(=O)([N-]S(=O)(=O)C(F)(F)C(F)(F)C(F)(F)C(F)(F)F)C(F)(F)C(F)(F)C(F)(F)C(F)(F)F` [Ex. 8, 1-(4,8-di-n-butoxynaphthyl)di-n-butylsulfonium di(1,1,2,2,3,3,4,4,4-nonafluorobutanesulfone)imide] displayed an Acid generation rate of 17%.
The figure for `CCCCOc1ccc2ccc(OCCCC)c([S+](CCCC)CCCC)c2c1.O=S(=O)([N-]S(=O)(=O)C(F)(F)F)C(F)(F)F` [Ex. 9, 1-(2,7-di-n-butoxynaphthyl)di-n-butylsulfonium di(1,1,1-trifluoromethanesulfone)imide] is 9%.
On to `CCCCOc1ccc2c(OCCCC)ccc([S+](CCCC)CCCC)c2c1.O=S(=O)([N-]S(=O)(=O)C(F)(F)F)C(F)(F)F` [Ex. 10, 1-(4,7-di-n-butoxynaphthyl)di-n-butylsulfonium di(1,1,1-trifluoromethanesulfone)imide], for which the Acid generation rate stood at 17%.
The result for `CCCCCCCCOc1ccc2ccc(OCCCCCCCC)c([S+](C)C)c2c1.O=S(=O)([N-]S(=O)(=O)C(F)(F)F)C(F)(F)F` [Ex. 11, 1-(2,7-di-n-octoxynaphthyl)dimethylsulfonium di(1,1,1-trifluoromethanesulfone)imide] reads 4%; that for `CCCCOc1ccc2ccc(OCCCC)c([S+](C(C)C)C(C)C)c2c1.O=S(=O)([N-]S(=O)(=O)C(F)(F)F)C(F)(F)F` [Ex. 12, 1-(2,7-di-n-butoxynaphthyl)diisopropyl sulfonium di(1,1,1-trifluoromethanesulfone)imide], 25%.
The figure for `CCCCOc1ccc2ccc(OCCCC)c([S+](C(C)C)C(C)C)c2c1.O=S(=O)([N-]S(=O)(=O)C(F)(F)C(F)(F)C(F)(F)C(F)(F)F)C(F)(F)C(F)(F)C(F)(F)C(F)(F)F` [Ex. 13, 1-(2,7-di-n-butoxynaphthyl)diisopropyl sulfonium di(1,1,2,2,3,3,4,4,4-nonafluorobutanesulfone)imide] is 15%.

(Values after patent US9465288B2, “Sulfonium salt compound, method for producing the same, and photoacid generator” (DSP GOKYO FOOD & CHEMICAL CO., LTD., priority 2012, dated 2016).)
